This is an account of results in paper doi:10.1101/2024.09.27.615457 (bioRxiv, 2024).

These are yes or no findings as the source states them, for the method shown. Binding seen in cells or lysates may run through a third protein. Tags and fused reporters may be left off the sequences shown.

In the test the target is T1, cLuc-bHLH107 (Arabidopsis) (UniProt Q9LET0).
T1 sequence: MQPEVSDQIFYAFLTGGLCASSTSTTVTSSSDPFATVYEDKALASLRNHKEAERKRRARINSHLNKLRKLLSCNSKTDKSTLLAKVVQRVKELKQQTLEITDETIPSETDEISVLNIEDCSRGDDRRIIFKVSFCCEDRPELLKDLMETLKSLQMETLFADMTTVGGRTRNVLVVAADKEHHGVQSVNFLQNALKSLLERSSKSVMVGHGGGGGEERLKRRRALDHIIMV
Kind of test: split reporter.

Regarding Actin-nLuc, the binding entry is reported as “no binding”.
